No constants are given. Whether binding was seen depends on the method and setting. Some entries that bind do so weakly or less than the wild type.
B1: J-11 (antibody, human IgG4 S228P, kappa, V domains shown)
VH: QVQLQQSGAELMKPGASVKLSCKATGYILTGYWIEWVKQRPGHGLEWIGEILPGSGSTNYNENFKGKATFTADTSSNTAYMQLSSLTTEDSAIYYCARAVLGYFDYWGQGTTLTVSS
VL: DIVMTQSHKFMSTSVGDRVSITCKASQDVSTAVAWYQQKPGQSPKLLIYWASTRHTGVPDRFTGSGSGTDYTLTISSVQAEDLALYYCHQHYSTYTFGGGTKLEIKR
B2: J-19 (antibody, human IgG4 S228P, kappa, V domains shown)
VH: QVTLKESGPGILQPSHTLSLTCSFSGFSLNTYAMGVSWIRQPSGKGLEWLASIWWNGNKYNNPSLKSRLTVSKDTSNNQAFLKVTSVDTADTATYYCAHSRIIRFTDYVMDAWGQGASVTVSS
VL: DIQMTQSPASLSTFLGEPVTIECRASEDIYNDLAWYQQKPGKSPQLLIYNANSLHTGVPSRFSGSGSGTQYSLKINSLQSEDVASYFCQQYYDYPLTFGSGTKLEIKR
B3: J-17 (antibody, human IgG4 S228P, kappa, V domains shown)
VH: QIQLVQSGPELKKPGETVKISCKASGYTFTTYGLSWVKQTPGKGLKWMGWINTYSGVPTYTDDFKGRFAFSLETSASTAYLQINNLKNEDTATYFCARPYDFDQVGFAYWGQGTLVTVSA
VL: SIVMTQTPKFLLVSAGDRVSITCKASQTVSSDVAWYQQKAGQSPKLLIYYASNRYTGVPDRFTGSGYGTDFTFTISTVQAEDLAVYFCQQDYSSPFTFGGGSKLEIKR

Protein sequences, listed by entry. Tags and fused reporters are not part of them. Lines headed by an entry give the natural chain unless they say otherwise; changes in a name come on top.
UniProt Q8N423: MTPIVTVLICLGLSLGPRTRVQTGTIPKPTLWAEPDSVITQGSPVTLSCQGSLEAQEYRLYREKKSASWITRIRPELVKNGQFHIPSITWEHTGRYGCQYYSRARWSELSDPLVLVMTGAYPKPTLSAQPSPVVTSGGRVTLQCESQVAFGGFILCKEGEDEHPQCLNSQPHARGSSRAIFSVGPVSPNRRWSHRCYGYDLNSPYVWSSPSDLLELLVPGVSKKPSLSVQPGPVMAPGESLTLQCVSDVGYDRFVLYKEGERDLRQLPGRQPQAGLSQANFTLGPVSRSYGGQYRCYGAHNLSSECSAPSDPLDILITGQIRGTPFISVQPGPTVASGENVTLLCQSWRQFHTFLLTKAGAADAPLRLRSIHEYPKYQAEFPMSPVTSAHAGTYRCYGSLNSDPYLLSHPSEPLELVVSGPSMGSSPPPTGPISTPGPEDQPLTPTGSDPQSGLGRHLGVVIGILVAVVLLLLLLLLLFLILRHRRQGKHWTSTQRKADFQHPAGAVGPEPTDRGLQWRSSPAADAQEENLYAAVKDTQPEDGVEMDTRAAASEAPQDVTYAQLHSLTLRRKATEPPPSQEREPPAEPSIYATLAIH

The binders below were run against human LILRB2 expressed on cells (human) (UniProt Q8N423) (assay: flow cytometry, human whole blood, biotinylated mAb 25 ug/mL).

binding, binds:
B1, B2, B3

Reference: patent publication US20200339690A1
